Results reported in paper PMC5430443.
Results are given in words; binding and its absence hold for the method and conditions named. In cells and extracts the contact can be indirect. Some binding calls cover weakened binding; strength is not graded here.

By UniProt entry, the sequences of proteins in these tests, tags left out. Where a name states a change or a piece, a line headed by the entry shows the natural chain unless it says otherwise.
UniProt Q8ND56: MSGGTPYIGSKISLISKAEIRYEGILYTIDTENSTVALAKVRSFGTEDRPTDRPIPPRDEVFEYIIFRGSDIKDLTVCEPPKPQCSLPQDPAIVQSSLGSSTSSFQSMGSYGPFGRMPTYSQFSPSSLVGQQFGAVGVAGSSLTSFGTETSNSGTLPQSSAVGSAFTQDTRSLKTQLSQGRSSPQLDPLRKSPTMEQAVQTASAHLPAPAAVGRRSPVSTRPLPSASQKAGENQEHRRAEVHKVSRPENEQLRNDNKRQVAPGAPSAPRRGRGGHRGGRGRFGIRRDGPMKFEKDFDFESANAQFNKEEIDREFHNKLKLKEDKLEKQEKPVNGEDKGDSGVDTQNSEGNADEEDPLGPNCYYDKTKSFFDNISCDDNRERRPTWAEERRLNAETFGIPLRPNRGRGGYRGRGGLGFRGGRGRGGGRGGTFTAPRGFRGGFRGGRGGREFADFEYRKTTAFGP

Tests used:
[1] = biological target: GST-FMRP-1-200 Y96L (human) (UniProt Q06787); experiment: pull-down; 20 ug GST-tagged protein pre-coupled to glutathione Sepharose 4B, lysate of HEK293T cells (endogenous proteins or Flag-tagged proteins 36 h after transfection; 100 mM NaCl, 20 mM Tris-HCl pH 7.4, 5 mM MgCl2, 0.5% Igepal CA-630), 4 h at 4 C, with or without RNase A 0.5 mg/ml; immunoblotting; only the target purified
[2] = biological target: GST-FMRP-1-200 F32L (human) (UniProt Q06787); experiment: as above

Row | Substance | binding [1] | binding [2]
1 | Flag-LSM14A (from UniProt Q8ND56-1 1-463) | binds | binds
2 | Flag-PLK1 (from UniProt P53350 1-603) | binds | binds
3 | LSM14A (endogenous) (from UniProt Q8ND56 1-463) | binds | binds
